Laboratory results reported in PMC5446404.
No constants are given. Whether binding was seen depends on the method and setting. Tags and fused reporters may be left off the sequences shown.

The chains behind the UniProt entries cited, without tags or fusion partners. Residues count along the entry.
UniProt O75460, residues 401-500: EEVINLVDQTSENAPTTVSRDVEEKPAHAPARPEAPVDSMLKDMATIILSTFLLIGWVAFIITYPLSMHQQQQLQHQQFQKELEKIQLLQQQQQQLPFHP
UniProt P02769, residues 25-607: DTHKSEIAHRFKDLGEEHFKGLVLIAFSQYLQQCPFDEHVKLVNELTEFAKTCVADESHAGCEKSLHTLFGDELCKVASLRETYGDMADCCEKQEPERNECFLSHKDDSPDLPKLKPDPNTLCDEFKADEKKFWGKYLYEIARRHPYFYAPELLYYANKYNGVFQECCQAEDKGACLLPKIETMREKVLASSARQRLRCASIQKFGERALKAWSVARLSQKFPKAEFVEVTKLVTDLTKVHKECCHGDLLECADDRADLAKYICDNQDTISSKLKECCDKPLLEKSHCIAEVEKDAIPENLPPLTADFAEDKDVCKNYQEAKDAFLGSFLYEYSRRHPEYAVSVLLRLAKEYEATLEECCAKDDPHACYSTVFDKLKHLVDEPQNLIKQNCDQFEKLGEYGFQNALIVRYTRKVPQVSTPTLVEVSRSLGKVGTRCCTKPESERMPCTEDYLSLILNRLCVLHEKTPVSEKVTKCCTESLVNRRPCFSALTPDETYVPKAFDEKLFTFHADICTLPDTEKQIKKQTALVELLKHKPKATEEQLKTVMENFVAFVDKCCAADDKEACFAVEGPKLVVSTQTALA

Target: T1, recombinant human fortilin (Strep-tag II), biotinylated (human) (UniProt P13693)
T1 sequence (chain, biotinylated (sites not stated)): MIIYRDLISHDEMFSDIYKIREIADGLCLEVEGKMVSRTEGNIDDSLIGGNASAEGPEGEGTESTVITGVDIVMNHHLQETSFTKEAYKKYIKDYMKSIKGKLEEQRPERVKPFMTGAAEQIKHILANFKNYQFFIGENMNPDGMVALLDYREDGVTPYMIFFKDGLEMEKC
Experiment: BLI; BLItz (ForteBio); biotinylated fortilin immobilised on streptavidin-coated biosensors (25 μg/mL, 600 s), buffer exchange in PBS; analyte at various concentrations for 180 s, dissociation in PBS for 300 s; three independent experiments; both purified

| Substance | binding |
| --- | --- |
| GST-IRE1α-TM (aa 401-500) (from UniProt O75460 401-500) (domain or fragment) | no binding |
| bovine serum albumin (from UniProt P02769 25-607) | no binding |
